Results taken from US20070281900A1, “COMPOSITIONS AND METHODS FOR LIPID AND POLYPEPTIDE BASED siRNA [sequence] [sequence]” (NASTECH PHARMACEUTICAL COMPANY INC., priority 2006, published 2007).
Part of at least one peptide drawing is inferred or uncertain, most often the ends. Peptide text beside a SMILES is read from it.

Columns and labels:
Assay type in all cases: cell-based
9L/LacZ cells [1] = assay: Qneg siRNA transfection efficiency (fluorescently labeled cells by microscopy); conditions: Qneg siRNA 100 nM, PN183 7 μM or PN73 2 μM where named
[2] = tested on: LacZ activity of 9L/LacZ cells; assay: LacZ assay: knockdown of β-galactosidase activity by LacZ siRNA (Example 3); conditions: polypeptide PN183 (7 μM) alone with LacZ siRNA; FIGS. 7-9
9L/LacZ cells [3] = assay: siRNA uptake (transfection efficiency) with lipid transfecture mixtures (Example 5); set-up: key to the marks not given beside the values; conditions: Lipid Transfecture Mixture (10 nM) + PN183 (7 μM)

For `C[C@@H](O)[C@H](NC(=O)[C@H](CCC(=O)O)NC(=O)[C@H](Cc1c[nH]c2ccccc12)NC(=O)[C@H](Cc1c[nH]c2ccccc12)NC(=O)[C@@H](NC(=O)[C@H](CCC(=O)O)NC(=O)[C@@H](N)CCCCN)[C@@H](C)O)C(=O)N[C@@H](Cc1c[nH]c2ccccc12)C(=O)N[C@@H](Cc1c[nH]c2ccccc12)C(=O)N[C@H](C(=O)N[C@@H](CCC(=O)O)C(=O)N[C@@H](Cc1c[nH]c2ccccc12)C(=O)N[C@@H](CO)C(=O)N[C@@H](CCC(N)=O)C(=O)N1CCC[C@H]1C(=O)NCC(=O)N[C@@H](CCCNC(=N)N)C(=O)N[C@@H](CCCCN)C(=O)N[C@@H](CCCCN)C(=O)N[C@@H](CCCNC(=N)N)C(=O)N[C@@H](CCCNC(=N)N)C(=O)N[C@@H](CCC(N)=O)C(=O)N[C@@H](CCCNC(=N)N)C(=O)N[C@@H](CCCNC(=N)N)C(=O)N[C@@H](CCCNC(=N)N)C(=O)N1CCC[C@H]1C(=O)N1CCC[C@H]1C(=O)N[C@@H](CCC(N)=O)C(N)=O)[C@@H](C)O` [PN183] (H-KETWWETWWTEWSQPGRKKRRQRRRPPQ-NH2), the “% Fluorescent Cells 20 nM” value (9L/LacZ cells [1]; lipid group 20 nM) was 100%, the “% Fluorescent Cells 60 nM” value (9L/LacZ cells [1]; lipid group 60 nM) was 100% and the “knockdown of LacZ activity” value [2] was “did not knockdown LacZ activity”. The Uptake (9L/LacZ cells [3]) was “++”.
